{"source": "PubChem BioAssay AID1259308 (NCATS, 2017)", "screen": "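Candidate targets for better recombinant protein yield in mammalian cells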 (primary screen)", "cells": "human HEK293 embryonic kidney cells stably expressing firefly luciferase (HEK-CMV-Luc2-Hygro)", "reagent": "single siRNA against human genes, 0.8 pmol siRNA per well", "time to read-out": "72 h", "measurement": "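Luciferase light (ONE-Glo) measured on one replicate plate set and viability (CellTiter-Glo) on the other, scaled to a negative control siRNA, with robust z-scores and luciferase per cell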", "direction": "total luciferase, z-score: higher = more reporter protein produced", "active means": "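An siRNA counts as active if its total luciferase robust z-score exceeds 3; genes with two or more such siRNAs out of three were retested with fresh siRNAs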", "meaning of the calls": "active = raised luciferase; inactive = no rise", "note": "This is a random part of about 59,000 reagents. About 1,510 of them (2.6%) count as active. 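Calls use total luciferase alone and ignore viability, so some active siRNAs may act by altering cell number.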 A number with no mark means an inactive call. The numbers tell different reagents against one gene apart. Further read-outs or replicates are left out here."}
{"gene":"PROK1 (GeneID 84432)","reagent no.":1,"total luciferase, z-score":0.395}
{"gene":"PROK1 (GeneID 84432)","reagent no.":2,"total luciferase, z-score":0.57}
{"gene":"PROK1 (GeneID 84432)","reagent no.":3,"total luciferase, z-score":-0.484}
{"gene":"PLK4 (GeneID 10733)","reagent no.":1,"total luciferase, z-score":0.708}
{"gene":"PLK4 (GeneID 10733)","reagent no.":2,"total luciferase, z-score":-1.68}
{"gene":"PLK4 (GeneID 10733)","reagent no.":3,"total luciferase, z-score":"4.55 (active)"}
{"gene":"PSMA7 (GeneID 5688)","reagent no.":1,"total luciferase, z-score":-0.718}
{"gene":"PSMA7 (GeneID 5688)","reagent no.":2,"total luciferase, z-score":-0.905}
{"gene":"PSMA7 (GeneID 5688)","reagent no.":3,"total luciferase, z-score":-1.69}
{"gene":"NIPAL4 (GeneID 348938)","reagent no.":1,"total luciferase, z-score":1.16}
{"gene":"NIPAL4 (GeneID 348938)","reagent no.":2,"total luciferase, z-score":-2.08}
{"gene":"NIPAL4 (GeneID 348938)","reagent no.":3,"total luciferase, z-score":-0.94}
{"gene":"HPN (GeneID 3249)","reagent no.":1,"total luciferase, z-score":2.73}
{"gene":"HPN (GeneID 3249)","reagent no.":2,"total luciferase, z-score":-1.74}
{"gene":"HPN (GeneID 3249)","reagent no.":3,"total luciferase, z-score":-0.338}
{"gene":"TEX46 (GeneID 729059)","reagent no.":1,"total luciferase, z-score":-0.556}
{"gene":"TEX46 (GeneID 729059)","reagent no.":2,"total luciferase, z-score":-1.37}
{"gene":"TEX46 (GeneID 729059)","reagent no.":3,"total luciferase, z-score":-1.93}
{"gene":"SLC25A37 (GeneID 51312)","reagent no.":1,"total luciferase, z-score":2.14}
{"gene":"SLC25A37 (GeneID 51312)","reagent no.":2,"total luciferase, z-score":-1.76}
{"gene":"SLC25A37 (GeneID 51312)","reagent no.":3,"total luciferase, z-score":"3.38 (active)"}
{"gene":"ZCCHC17 (GeneID 51538)","reagent no.":1,"total luciferase, z-score":0.226}
{"gene":"ZCCHC17 (GeneID 51538)","reagent no.":2,"total luciferase, z-score":-1.7}
{"gene":"ZCCHC17 (GeneID 51538)","reagent no.":3,"total luciferase, z-score":2.23}
{"gene":"RPL34 (GeneID 6164)","reagent no.":1,"total luciferase, z-score":-2.77}
{"gene":"RPL34 (GeneID 6164)","reagent no.":2,"total luciferase, z-score":-2.98}
{"gene":"RPL34 (GeneID 6164)","reagent no.":3,"total luciferase, z-score":-2.56}
{"gene":"BPIFB4 (GeneID 149954)","reagent no.":1,"total luciferase, z-score":0.183}
{"gene":"BPIFB4 (GeneID 149954)","reagent no.":2,"total luciferase, z-score":0.83}
{"gene":"BPIFB4 (GeneID 149954)","reagent no.":3,"total luciferase, z-score":0.792}
{"gene":"SLC16A5 (GeneID 9121)","reagent no.":1,"total luciferase, z-score":0.643}
{"gene":"SLC16A5 (GeneID 9121)","reagent no.":2,"total luciferase, z-score":0.169}
{"gene":"SLC16A5 (GeneID 9121)","reagent no.":3,"total luciferase, z-score":0.0404}

Not a retest: entries from further up.
{"gene":"SLC25A37 (GeneID 51312)","reagent no.":2,"total luciferase, z-score":-1.76}
{"gene":"SLC25A37 (GeneID 51312)","reagent no.":3,"total luciferase, z-score":"3.38 (active)"}
